Reference: PubChem BioAssay AID602196 (INSERM, 2012)
Shown is one part, drawn at random, of about 23,000 reagents tested. 455 of all reagents (2%) count as active. 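Active includes both protection and sensitisation; some change values fall well beyond the stated -50 to +50 range.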 Entries without a mark were called inactive. Reagents against one gene are numbered here. Further read-outs or replicates are left out here. The record does not give: the amount of reagent.

- Aim: 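Genes whose knock-down alters cisplatin killing of lung cancer cells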
- Cell system: human A549 lung cancer cells
- Knock-down reagent: siRNA pair against human genes
- Duration: 48 h transfection before cisplatin; time from cisplatin to read-out not stated
- Treatment: cisplatin at a dose killing half of control-siRNA cells; exact dose and duration not given
- Read-out: 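Shift in cisplatin death relative to control siRNA, from -50 (all cells die) to +50 (no cells die); siRNAs harmful on their own scored 0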
- Direction: two-siRNA summed score (-2 to +2): higher = both siRNAs protect from cisplatin killing; -2 means both sensitise; mean protection from cisplatin (shift in death): higher = protection from cisplatin killing
- Call rule: 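Each siRNA scores 0 if harmful alone by LDH or WST-1, otherwise +1 if it reduces and -1 if it increases cisplatin killing; a gene is active when both siRNAs agree (sum +2 or -2)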
- Calls: active = both siRNAs shift cisplatin killing the same way; inactive = no consistent shift, or siRNA harmful alone

With knock-down of MYO6 (GeneID 4646), the screen gave two-siRNA summed score (-2 to +2) = 0; mean protection from cisplatin (shift in death) (%) = 3.
Silencing of FCGR3A (GeneID 2214) came out at: two-siRNA summed score (-2 to +2) = -1; mean protection from cisplatin (shift in death) (%) = -8.3.
Depletion of PLK3 (GeneID 1263) gave: two-siRNA summed score (-2 to +2) = 1; mean protection from cisplatin (shift in death) (%) = 20.6.
With knock-down of LOC400470 the results were two-siRNA summed score (-2 to +2) = 0; mean protection from cisplatin (shift in death) (%) = 10.9.
TAOK2 (GeneID 9344) #1 showed two-siRNA summed score (-2 to +2) = 1; mean protection from cisplatin (shift in death) (%) = 3.4.
Knock-down of TAOK2 (GeneID 9344) #2 came out at: two-siRNA summed score (-2 to +2) = 1; mean protection from cisplatin (shift in death) (%) = 13.9.
Depletion of GNPNAT1 (GeneID 64841) came out at: two-siRNA summed score (-2 to +2) = 0; mean protection from cisplatin (shift in death) (%) = -2.7.
Depletion of LINC03048 (GeneID 100130370) gave: two-siRNA summed score (-2 to +2) = 1; mean protection from cisplatin (shift in death) (%) = 10.3.
After knock-down of DDX4 (GeneID 54514), the screen gave two-siRNA summed score (-2 to +2) = 1; mean protection from cisplatin (shift in death) (%) = 6.8.
COL4A4 (GeneID 1286) gave two-siRNA summed score (-2 to +2) = -1; mean protection from cisplatin (shift in death) (%) = -7.5.
Knock-down of RPL14P1 (GeneID 144581) resulted in: two-siRNA summed score (-2 to +2) = 0; mean protection from cisplatin (shift in death) (%) = 19.6.
For SHC4 (GeneID 399694), the entry reads two-siRNA summed score (-2 to +2) = 0; mean protection from cisplatin (shift in death) (%) = 5.5.
Knock-down of LOC393062 came out at: two-siRNA summed score (-2 to +2) = 0; mean protection from cisplatin (shift in death) (%) = 11.6.
LOC442401 showed two-siRNA summed score (-2 to +2) = 0; mean protection from cisplatin (shift in death) (%) = -2.5.
After knock-down of GLT8D1 (GeneID 55830) the results were two-siRNA summed score (-2 to +2) = 0; mean protection from cisplatin (shift in death) (%) = 4.1.
With knock-down of DNAI2 (GeneID 64446), the screen gave two-siRNA summed score (-2 to +2) = -1; mean protection from cisplatin (shift in death) (%) = -14.
With knock-down of RGPD5 (GeneID 84220), the record shows two-siRNA summed score (-2 to +2) = -1; mean protection from cisplatin (shift in death) (%) = -10.7.
TIGD7 (GeneID 91151) gave two-siRNA summed score (-2 to +2) = 0; mean protection from cisplatin (shift in death) (%) = 7.
NRDC (GeneID 4898) gave two-siRNA summed score (-2 to +2) = -1; mean protection from cisplatin (shift in death) (%) = -8.7.
Silencing of TIMP3 (GeneID 7078) came out at: two-siRNA summed score (-2 to +2) = 0; mean protection from cisplatin (shift in death) (%) = 8.
With knock-down of LOC440226, the record shows two-siRNA summed score (-2 to +2) = 0; mean protection from cisplatin (shift in death) (%) = 2.3.
With knock-down of NR5A2 (GeneID 2494), the screen gave two-siRNA summed score (-2 to +2) = -1; mean protection from cisplatin (shift in death) (%) = -0.6.
For LOC283117 the deposit lists two-siRNA summed score (-2 to +2) = 1; mean protection from cisplatin (shift in death) (%) = 11.7.
PCBD1 (GeneID 5092) showed two-siRNA summed score (-2 to +2) = 0; mean protection from cisplatin (shift in death) (%) = -9.4.
For OASL (GeneID 8638), the values are two-siRNA summed score (-2 to +2) = -1; mean protection from cisplatin (shift in death) (%) = -8.2.
Knock-down of RBBP7 (GeneID 5931) came out at: two-siRNA summed score (-2 to +2) = -1; mean protection from cisplatin (shift in death) (%) = -10.2.
PREX2 (GeneID 80243) showed two-siRNA summed score (-2 to +2) = -1; mean protection from cisplatin (shift in death) (%) = -7.3.
HIP1R (GeneID 9026) scored two-siRNA summed score (-2 to +2) = 0; mean protection from cisplatin (shift in death) (%) = 12.1.
Silencing of PGK1 (GeneID 5230) came out at: two-siRNA summed score (-2 to +2) = 0; mean protection from cisplatin (shift in death) (%) = 7.9.
ZNF514 (GeneID 84874) gave two-siRNA summed score (-2 to +2) = 0; mean protection from cisplatin (shift in death) (%) = 0.3.
Depletion of MSI2 (GeneID 124540) came out at: two-siRNA summed score (-2 to +2) = 0; mean protection from cisplatin (shift in death) (%) = 9.2.
